Publication doi:10.1101/2020.12.07.414227
These are yes or no findings as the source states them, for the method shown. Binding seen in cells or lysates may run through a third protein. Some results given as binding are weak or reduced against the parent protein; the word gives no strength.

Assays:
[1] = molecular target: T1, IL-12p35 (mouse (endogenous in BMM)) (UniProt P43431); assay: co-IP
T1 sequence: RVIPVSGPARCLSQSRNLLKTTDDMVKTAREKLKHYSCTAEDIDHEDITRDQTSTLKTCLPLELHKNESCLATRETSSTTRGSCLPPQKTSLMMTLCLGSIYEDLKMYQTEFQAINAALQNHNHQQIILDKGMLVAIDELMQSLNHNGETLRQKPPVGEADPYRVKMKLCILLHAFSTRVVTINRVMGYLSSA

[2] = molecular target: T2, NBR1 (mouse (endogenous in BMM)) (UniProt P97432); assay: co-IP
T2 sequence: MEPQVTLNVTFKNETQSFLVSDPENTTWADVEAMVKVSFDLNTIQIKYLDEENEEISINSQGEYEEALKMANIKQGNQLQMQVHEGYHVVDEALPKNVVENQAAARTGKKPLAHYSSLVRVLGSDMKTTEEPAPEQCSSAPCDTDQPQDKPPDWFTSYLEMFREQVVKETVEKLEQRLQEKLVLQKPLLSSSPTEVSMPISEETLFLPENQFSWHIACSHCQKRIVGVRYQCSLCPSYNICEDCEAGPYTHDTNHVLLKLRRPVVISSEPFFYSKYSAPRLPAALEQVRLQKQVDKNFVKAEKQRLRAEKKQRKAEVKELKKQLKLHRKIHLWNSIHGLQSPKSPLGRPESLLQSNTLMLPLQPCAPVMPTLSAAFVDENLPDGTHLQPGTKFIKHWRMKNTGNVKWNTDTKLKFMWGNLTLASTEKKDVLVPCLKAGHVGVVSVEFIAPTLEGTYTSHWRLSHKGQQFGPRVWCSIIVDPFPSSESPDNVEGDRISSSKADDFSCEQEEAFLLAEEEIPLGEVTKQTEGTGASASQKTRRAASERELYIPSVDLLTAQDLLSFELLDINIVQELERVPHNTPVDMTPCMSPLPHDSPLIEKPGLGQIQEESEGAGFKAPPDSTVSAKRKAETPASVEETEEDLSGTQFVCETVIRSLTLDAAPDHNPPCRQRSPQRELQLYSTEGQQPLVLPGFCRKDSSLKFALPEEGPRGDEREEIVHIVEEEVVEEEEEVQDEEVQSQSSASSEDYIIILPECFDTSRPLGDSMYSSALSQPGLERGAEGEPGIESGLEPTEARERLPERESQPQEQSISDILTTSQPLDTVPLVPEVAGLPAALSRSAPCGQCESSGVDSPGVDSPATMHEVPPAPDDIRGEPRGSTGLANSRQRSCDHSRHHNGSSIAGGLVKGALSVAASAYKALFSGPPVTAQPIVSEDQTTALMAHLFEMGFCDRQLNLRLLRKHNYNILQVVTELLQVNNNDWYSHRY

Row | Binder | binding [1] | binding [2]
1 | IL-12p40 (protein, UniProt P43432 23-335) MWELEKDVYVVEVDWTPDAPGETVNLTCDTPEEDDITWTSDQRHGVIGSGKTLTITVKEFLDAGQYTCHKGGETLSHSHLLLHKKENGIWSTEILKNFKNKTFLKCEAPNYSGRFTCSWLVQRNMDLKFNIKSSSSSPDSRAVTCGMASLSAEKVTLDQRDYEKYSVSCQEDVTCPTAEETLPIELALEARQQNKYENYSTSFFIRDIIKPDPPKNLQMKPLKNSQVEVSWEYPDSWSTPHSYFSLKFFVRIQRKKEKMKETEEGCNQKGAFLVEKTSTEVQCKGGNVCVQAQDRYYNSSCSKWACVPCRVRS | binds | binds
2 | IL-12p35 (protein, UniProt P43431 23-215) RVIPVSGPARCLSQSRNLLKTTDDMVKTAREKLKHYSCTAEDIDHEDITRDQTSTLKTCLPLELHKNESCLATRETSSTTRGSCLPPQKTSLMMTLCLGSIYEDLKMYQTEFQAINAALQNHNHQQIILDKGMLVAIDELMQSLNHNGETLRQKPPVGEADPYRVKMKLCILLHAFSTRVVTINRVMGYLSSA | – | binds
